According to PMC10163288:
The other results are listed elsewhere or left out.

B1: il2ra_site1_3nfp_sap_24_mot_HHH_b1_01291_000000078_0001_42_56_H_._7f39e2d7389de0c2f60e905c27398b6a_0001_1_af2_0001_0000700016_0000001_0_0001 (protein)
chain: DVEELLKLARELGDELVEEVAEFLAEELEKDPDNEAVRYAVKMLLDALERNPEYAKRAAELALRA
B2: il2ra_site2_2erj_sap_17_mot_HHH_b2_05486_000000159_0001_39_55_H_._HHH_b1_08641_af2_0001_0000100002_0000001_0_0001 (protein)
chain: SSSSSDEIEEEVLELIAEAAHIPDPKEAVEVLEHALELAEEYGNELLRRYLELSLKDIRGSSSSS
B3: il2ra_site1_1z92_sap_14_mot_HHH_b1_05862_af2_000000270_0001_22_38_H_._HHH_b1_06212_0001_0000200007_0000001_0_0001_af2pred_0001_af2pred_1 (protein)
chain: SSSSSDLEELIEEIARELAEENNDEDLREELEKAAERLKKLGTSHERARKILEKLVKAARSSSSS
B4: il2ra_site1_3nfp_sap_17_mot_HHH_b2_05479_af2_000000070_0001_1_16_H_._HHH_b2_02924_af2_0001_0000200019_0000001_0_0001_af2pred_0001_1_af2pred_swapped (protein)
chain: SSSSSSDEEEVEELLERAKRVEDIKEAQELLEEALRIASETDNPELRKLVEEAMRELAGSSSSSS
B5: il2ra_site1_1z92_sap_22_mot_707acc9d051fe3a4acad5ad22db0e630_0001_1_af2_000000084_0001_35_50_H_._HHH_b1_02301_0001_0000400017_0000001_0_0001 (protein)
chain: SSSSSWREESLRMMLRVLERAVKAGNERAVEKWLRMIEMQAKILGDPEAEELVEEVRERLSSSSS
B6: il2ra_site1_3nfp_sap_8_mot_119b7766384adbe86006a62bce89dba1_0001_af2_000000092_0001_18_32_H_._HHH_b2_02632_0001_0000300007_0000001_0_0001 (protein)
chain: SSSSDARELLFEAAEILDELAERGDHEELKRFAEEVIEELEELGNRQAARMIRWLVERALSSSSS
B7: il2ra_site1_2b5i_sap_13_mot_HHH_b2_04910_000000118_0001_1_19_H_._HHH_b1_01231_0001_0000100002_0000001_0_0001_af2pred_0001_af2pred (protein)
chain: SSSSSEASKLFWEYLEQADRALRRGNPEEAEELLEELIRLLRELNNPTLVRSAELLLEQLKSSSS
B8: il2ra_site1_1z92_normal_mot_8a2488b2a3eb54e2d6a8d2f084ff7391_0001_000000050_0001_32_46_H_._b88b9ab6f2ed0898e4e13bd4c8b0475b_0001_af2_0001_0001000045_0000001_0 (protein)
chain: DEEVEQLFEELKKRIPPEEVVRILLEELAEKLGDPKEAIRIVHQVLRKLGFSPEEIIELARKADK
B9: il2ra_site1_1z92_sap_8_mot_a31c9f16200a66e5ad31ddff700483a3_0001_1_000000069_0001_19_32_H_._HHH_b1_08052_0001_0000300018_0000001_0_0001_af2pred_0001_af2pred (protein)
chain: SSSSEESLRRLAERLVEDAAKLADLSEEQKEELEELAEELIKRGVDPHEIAKELERLADELSSSS
B10: il2ra_site2_3nfp_sap_12_mot_HHH_b1_02359_000000112_0001_1_19_H_._HHH_b1_07040_0001_0000500008_0000001_0_0001 (protein)
chain: SSSSSSKRLLEAAIRSLRILKERGDEEMAKLAVRYLLAAARLHGDEEAREFAEELLKELRSSSSS
B11: il2ra_site1_1z92_sap_7_mot_2d0b8033f7cc6bf30152df0733deaa63_0001_af2_000000109_0001_53_63_H_._HHH_b1_05185_0001_0000500022_0000001_0_0001_af2pred_0001_af2pred_1 (protein)
chain: DEALEILLLLAKGDPEAERLLRELIERLEEEGDEEEVRFLLEEAEKIVKLFNNPEAQRVVEELEP
B12: il2ra_site2_3nfp_normal_mot_HHH_b2_06150_000000217_0001_39_53_H_._HHH_b2_05434_af2_0001_0000100005_0000001_0 (protein)
chain: SSSSDEEEVEKLLKKAEELRERGNPEEARKLLREATQIAYERRDSELFFLVAEVLFEVLLSSSSS
B13: il2ra_site1_1z92_sap_30_mot_HHH_b1_04932_af2_000000260_0001_1_19_H_._HHH_b1_03927_af2_0001_0000800028_0000001_0_0001_af2pred_0001_af2pred (protein)
chain: SSSSNSLERILEILLRNVEKALESGNPRAARRLLEEAKKAAKDAGDEEVERRLEELEELLNSSSS
B14: il2ra_site1_3nfp_sap_19_mot_1cd86ef9f1587ae5d14d35bbbd8e7f1d_0001_1_000000087_0001_34_49_H_._HHH_b2_06979_0001_0000500027_0000001_0_0001_af2pred_0001_1_af2pred_ … (protein)
chain: SSSSSSSSERFLRELLERAERRNNELDLKAIARMLKQAAELHNNEELFEKAKEIEERLSSSSSSS
B15: il2ra_site1_1z92_normal_mot_3c291a2f2994a8e029b17f9ec7f22732_0001_af2_000000144_0001_36_50_H_._1a8b5531b1c5c0995b8d0dfb01d8624e_0001_0001_0000300044_0000001_1 (protein)
chain: SFEYLEEEVKEAAENNDPELLQELLEELEEIAGDPHLATQFLVALIARVLNIPPEEARKIVEEVK
B16: il2ra_site2_3nfp_sap_21_mot_ems_3hM_1278_af2_000000151_0001_43_60_H_._ae2d1c0b5552e85e62693402b9c72bf7_0001_af2_0001_0000500079_0000001_0_0001 (protein)
chain: SSSSDVEERVRELLEEAERLREEGNPEEVKELLAEAAQLAFENNDERAFMLIAEVVLKLAQSSSS
B17: il2ra_site1_2b5i_sap_5_mot_HHH_b1_04602_000000079_0001_23_39_H_._HHH_b2_01629_0001_0000300018_0000001_0_0001 (protein)
chain: SSSSDVEEQVDELFREASELWRKGNPEEAEKVLEEAIELAKKSGDPKAEEDLERFLEMLRSSSSS
B18: il2ra_site1_3nfp_sap_14_mot_0eddeacbb14b769e73e254714f31e2f9_0001_af2_000000052_0001_37_51_H_._HHH_b1_00703_0001_0000400046_0000001_0_0001 (protein)
chain: SSSSDEELRKIEELLREVKRLAHEGNPEEARKLLEEAQRLAEEANDPIARRLVEDMRRNLNSSSS
B19: il2ra_site1_3nfp_sap_24_mot_HHH_b1_07882_000000017_0001_39_56_H_._HHH_b2_00888_0001_0000100005_0000001_0_0001_af2pred_0001_af2pred_1_swapped (protein)
chain: SSSSSYEERVRELLERAEELLEEGDLEKVKELLEEAKEVAKELGDRELIELVWRFLEEIVRSSSS
B20: il2ra_site2_2erj_sap_22_mot_HHH_b1_03833_000000078_0001_1_20_H_._HHH_b1_04328_af2_0001_0000400018_0000001_0_0001 (protein)
chain: SELERVLEEIEEKFSDDPEIKEIIEELKELIKNNDPRALHLLFKLAVILLKKNPELAHELLEATS

Molecular target: il2ra, P01589
Test: yeast display titration

Apparent Kd, inactive:
B1 no binding seen
B2 no binding seen
B3 no binding seen
B4 no binding seen
B5 no binding seen
B6 no binding seen
B7 no binding seen
B8 no binding seen
B9 no binding seen
B10 no binding seen
B11 no binding seen
B12 no binding seen
B13 no binding seen
B14 no binding seen
B15 no binding seen
B16 no binding seen
B17 no binding seen
B18 no binding seen
B19 no binding seen
B20 no binding seen

As a working copy, part of the list above.
Apparent Kd, inactive:
B11 no binding seen
B12 no binding seen
